{"source": "patent US9422306B2", "about": "“Artemisinin compounds and synthesis and use thereof” (University of Washington Through Its Center for …, priority 2012, dated 2016)", "system": "P. chabaudi AS", "experiment": "4-day Peters' test, in vivo anti-malarial activity", "set-up": "species or system P. chabaudi (in CD1 mice)", "note": "For at least one compound, name, drawing or mass did not settle the structure."}
{"smiles": "CCc1nc(N)nc(N)c1-c1ccc(Cl)cc1", "note": "[pyrimethamine]", "values": [{"measurement": "ED90", "result": 0.88, "unit": "mg/kg"}]}
